Source: patent US5914236A, “PCT-65 serotonin receptor” (United States of America, priority 1995, dated 1999)

Amino acid sequences for entries named in this document (tags omitted). Residues count along the entry.
UniProt P32305, 45-448: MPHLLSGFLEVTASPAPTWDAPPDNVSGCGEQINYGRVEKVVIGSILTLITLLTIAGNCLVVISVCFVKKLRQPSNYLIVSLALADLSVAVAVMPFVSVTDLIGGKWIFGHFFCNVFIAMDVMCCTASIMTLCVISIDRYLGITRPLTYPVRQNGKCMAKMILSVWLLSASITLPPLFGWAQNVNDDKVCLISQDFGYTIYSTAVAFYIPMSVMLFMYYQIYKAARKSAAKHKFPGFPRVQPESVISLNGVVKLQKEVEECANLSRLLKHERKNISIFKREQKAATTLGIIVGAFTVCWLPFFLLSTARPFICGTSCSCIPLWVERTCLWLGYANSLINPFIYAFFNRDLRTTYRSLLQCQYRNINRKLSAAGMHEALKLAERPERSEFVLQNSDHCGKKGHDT

Target: T1, PCT-65 receptor (Rattus norvegicus, UniProt P32305)
T1 construct: expressed in transfected cells; host or cells: COS-7 cells (transient, calcium phosphate, pSRα-65)
Test: Competition binding to PCT-65 receptor (radioligand not specified)
Conditions: expressed in mammalian cells (COS-7)

CCN(CC)C(=O)N[C@H]1C=C2c3cccc4[nH]cc(c34)C[C@H]2N(C)C1 [Lisuride]
affinity for PCT-65 (in words): relatively high affinity
